# Results are given in words; binding and its absence hold for the method and conditions named. Some entries that bind do so weakly or less than the wild type.
# Chains of the proteins cited; added tags and fusions are not shown. Residues count along the entry.
# UniProt P32004, residues 20-1120: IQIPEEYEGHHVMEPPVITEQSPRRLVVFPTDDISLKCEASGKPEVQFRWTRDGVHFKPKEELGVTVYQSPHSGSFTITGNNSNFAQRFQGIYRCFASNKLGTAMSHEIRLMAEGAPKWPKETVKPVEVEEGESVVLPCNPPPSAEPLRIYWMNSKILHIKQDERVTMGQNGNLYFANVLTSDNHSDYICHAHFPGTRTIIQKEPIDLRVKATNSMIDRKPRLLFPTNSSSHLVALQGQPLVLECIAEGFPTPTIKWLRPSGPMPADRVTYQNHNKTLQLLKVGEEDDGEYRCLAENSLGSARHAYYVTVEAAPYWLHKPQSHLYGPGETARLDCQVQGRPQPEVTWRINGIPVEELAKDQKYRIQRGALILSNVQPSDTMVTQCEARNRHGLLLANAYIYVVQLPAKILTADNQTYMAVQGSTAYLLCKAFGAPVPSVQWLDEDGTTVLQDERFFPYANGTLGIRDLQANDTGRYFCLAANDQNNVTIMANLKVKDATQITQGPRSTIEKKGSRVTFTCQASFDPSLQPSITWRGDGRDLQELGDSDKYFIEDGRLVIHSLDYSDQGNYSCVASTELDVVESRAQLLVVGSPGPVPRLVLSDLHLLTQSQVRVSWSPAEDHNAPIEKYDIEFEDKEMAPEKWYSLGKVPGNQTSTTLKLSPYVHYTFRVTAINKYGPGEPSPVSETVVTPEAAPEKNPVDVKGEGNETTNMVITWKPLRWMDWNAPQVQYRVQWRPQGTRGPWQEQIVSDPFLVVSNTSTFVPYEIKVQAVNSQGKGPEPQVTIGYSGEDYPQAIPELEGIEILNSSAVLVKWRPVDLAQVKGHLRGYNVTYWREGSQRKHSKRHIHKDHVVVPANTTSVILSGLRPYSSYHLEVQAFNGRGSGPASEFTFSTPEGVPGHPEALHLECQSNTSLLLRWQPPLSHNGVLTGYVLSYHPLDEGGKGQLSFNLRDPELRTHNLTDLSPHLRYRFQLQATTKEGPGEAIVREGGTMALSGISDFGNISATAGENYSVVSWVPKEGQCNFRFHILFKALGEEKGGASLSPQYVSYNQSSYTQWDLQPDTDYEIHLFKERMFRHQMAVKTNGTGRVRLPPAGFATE
# Target: recombinant L1-Fc fusion protein (human L1-Fc protein comprising the ectodomain of L1) (human) (UniProt P32004)
# Experiment: cell adhesion assay, J558-L1 cells on slides coated with L1-Fc (10 µg/ml), bound cells counted by bright field microscopy, mean ± SD
substance,measurement,value
L1 on J558-L1 cells (L1-transfected cells) (from UniProt P32004 20-1257) (receptor),binding,binds

# Source: patent US8580258
